Measured values published in article PMC4703963.
These are yes or no findings as the source states them, for the method shown. Each block holds one substance with its values, some of them ahead of it.

Sequences of proteins named here, by UniProt entry; tags and fusion partners are left off. A change or cut given only in a name is not applied to a line headed by its entry.
UniProt Q9GZT9: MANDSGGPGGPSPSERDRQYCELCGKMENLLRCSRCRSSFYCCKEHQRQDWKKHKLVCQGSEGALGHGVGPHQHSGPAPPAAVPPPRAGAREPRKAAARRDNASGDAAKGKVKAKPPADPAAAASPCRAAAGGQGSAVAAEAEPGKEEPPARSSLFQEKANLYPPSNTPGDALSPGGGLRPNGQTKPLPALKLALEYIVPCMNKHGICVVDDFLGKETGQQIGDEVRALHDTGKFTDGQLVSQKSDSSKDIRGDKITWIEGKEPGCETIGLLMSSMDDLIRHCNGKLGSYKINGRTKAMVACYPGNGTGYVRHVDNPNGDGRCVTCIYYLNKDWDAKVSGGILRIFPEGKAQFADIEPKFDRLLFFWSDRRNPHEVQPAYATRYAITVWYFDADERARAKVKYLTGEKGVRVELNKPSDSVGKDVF

What was measured:
[1] = target: C326S HA-PHD2 purified from HEK293T cells (human) (UniProt Q9GZT9); assay: non-reducing SDS-PAGE with immunoblot; tagged PHD2 affinity-purified (Flag or HA gel, peptide elution) from H2O2-treated HEK293T cells, run without DTT; both purified
[2] = target: Flag-tagged PHD2 purified from HEK293T cells (human) (UniProt Q9GZT9); assay: non-reducing SDS-PAGE with immunoblot; Flag-PHD2 affinity-purified from H2O2-treated HEK293T cells, in the presence of DTT; both purified
[3] = target: Prolyl hydroxylase domain protein 2 (PHD2), endogenous (human (endogenous in U2OS, H2030, A549)) (UniProt Q9GZT9); assay: non-reducing SDS-PAGE with immunoblot; lysates of oxidant-treated or H-ras V12 cells incubated with 100 mM DTT before the gel, or sample buffer with β-ME
[4] = target: Prolyl hydroxylase domain protein 2 (PHD2), endogenous (human (endogenous in U2OS, H2030, A549)) (UniProt Q9GZT9); assay: condition: only cells incubated with 3 mM NAC for 16 h; non-reducing SDS-PAGE with immunoblot; H-ras V12 overexpressing U2OS cells incubated 16 h with 3 mM NAC before lysis

binding [1]: no binding
Substance: C326S HA-PHD2 purified from HEK293T cells (from UniProt Q9GZT9 1-426)

Substance: Flag-tagged PHD2 purified from HEK293T cells (from UniProt Q9GZT9 1-426)
binding [2]: no binding (condition: in the presence of DTT)

binding [4]: no binding
Substance: Prolyl hydroxylase domain protein 2 (PHD2), endogenous (from UniProt Q9GZT9 1-426)
binding [3]: no binding (condition: lysates incubated with 100 mM DTT)
